Experimental data from the supplement of paper PMC11237882.
Some of the results follow. Values are worked out from sequencing counts and are noisy.

T1: Homer1 EVH1 domain
T1 chain: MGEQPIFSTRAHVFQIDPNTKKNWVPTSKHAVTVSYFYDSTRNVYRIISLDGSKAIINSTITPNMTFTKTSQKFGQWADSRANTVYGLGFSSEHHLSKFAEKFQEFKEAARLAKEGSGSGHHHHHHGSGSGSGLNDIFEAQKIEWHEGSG


Biological target: T1, Homer1 EVH1 domain
Experiment: enrichment score (AUC of log2 frequency ratio across FACS sorting rounds) (log2 AUC); higher = stronger enrichment for Homer1 EVH1 binding

For VAAIVAAVVALIYCRKKRISALPGYPECREMGETLP, which enrichment score is on record?
Its enrichment score is 0.517.

For TEVKASDPHSMPELPRTAKQPPVPPPRKKRISRQLA, which enrichment score is on record?
Its enrichment score is -1.36.

For EAASLSLSNLWFGFLLGLLCFLDNSSFKNDVKEEST, which enrichment score is on record?
The enrichment score was 3.97.

Which enrichment score does the source give for SLDNRINEVNKTILLTTLIPYLQSVIFLFVIRCLEK here?
The enrichment score was 2.41.

How did the enrichment score turn out when QMFAKGYGKNNEPLRGYILTFLIALGFILIAELNVI was run?
The enrichment score was 0.965.

How did the enrichment score turn out when LITEIIPSTSLVIPLIGEYLLFTMIFVTLSIVITVF was run?
The enrichment score was 4.01.

With VGNALGAGDMEQARKSSTVSLLITVLFAVAFSVLLL as the binder, how does the enrichment score read?
The enrichment score was 3.18.

For RTGREKIFSKHVAHVLNDETQRKYIQGLKRLMTICQ, which enrichment score is on record?
The enrichment score was -0.0114.

Which enrichment score does the source give for VESTKKFLKFGFLDPLFLSIILFPFLTPVFEALNVS here?
The enrichment score was -0.693.

For EHLRVIGAVGIGLACVQVFGMIFTCCLYRSLKLEHY, which enrichment score is on record?
Its enrichment score is 0.455.

For LVGQTQTHNKSICTTTTAFLHFFFLASFCWVLTEAW, which enrichment score is on record?
Its enrichment score is 2.54.

YVGNQNLDALTGFVVAPLFTYLVIGTLFIAAGLVAL was tested. Which enrichment score did it give?
Its enrichment score is 3.9.

TSGPPGEGCSGLCSWRSAPLHSGSLLYLLLSHLLPP was tested. Which enrichment score did it give?
The enrichment score was -3.

Which enrichment score does the source give for LKGADAGNGIRVFVPDIGMFIASLTIWLLCRNIVQK here?
The enrichment score was 3.88.

KNSNNLIIKYISCRLLTLIIILLACIYLGYYFSLSS was tested. Which enrichment score did it give?
Its enrichment score is 1.63.

How did the enrichment score turn out when MGGLRPWSRYGLLVVAHLLALGLGAVVFQALEGPPA was run?
The enrichment score was 2.53.

With PPSPALPVPSGMQVPPAFLRPPSLFLRAAAAAAAAA as the binder, how does the enrichment score read?
Its enrichment score is 3.72.

For IYCLVLLAFATGLNQLYFYYETRAIDEPNNCKGIRC, which enrichment score is on record?
Its enrichment score is 1.31.

How did the enrichment score turn out when FAQLFQYKAVFILEELLSPIVTPLILIFCLRPRALE was run?
Its enrichment score is 0.412.

Which enrichment score does the source give for MRDYLATHVHSRPLLLALHGPSGVGKSHVGRLLARH here?
Its enrichment score is -2.33.

How did the enrichment score turn out when MGALGLEGRGGRLQGRGSLLLAVAGAASLVTLLLAV was run?
Its enrichment score is 0.00102.

With EPNGSALPPTEGPPSPRNQPTTALLSLILMLGTFFI as the binder, how does the enrichment score read?
The enrichment score was 0.414.

With CPLQCGIMWQLLLPTALLLLVSAGMRTEDLPKAMVV as the binder, how does the enrichment score read?
Its enrichment score is 1.41.

With TPTPDKSHNSGVNISTLVLSVIGSVVIVNFILSTTI as the binder, how does the enrichment score read?
Its enrichment score is -0.268.

For EWTSSVHQKIYTTFILVILFLLPLMVMLILYSKIGY, which enrichment score is on record?
The enrichment score was 5.21.

How did the enrichment score turn out when SVQTDDEDSAEWEQPVRRRRSRLPRHSDSGSDSKHD was run?
The enrichment score was 1.16.

Which enrichment score does the source give for QPIRIYSRASLYGPNIGRPRKNVIALLDGFMKVAGS here?
Its enrichment score is 0.398.

MVWCLGLAVLSLVISQGADGRGKPEVISVVGRAEES was tested. Which enrichment score did it give?
Its enrichment score is -0.355.

Which enrichment score does the source give for MKKSGVLFLLGIILLVLIGVQGTPVVRKGRCSCIST here?
Its enrichment score is 1.95.

Which enrichment score does the source give for RFGAYLVAHKLMSFEDVLLVFSAVVFGAMAVGQVSS here?
Its enrichment score is 3.11.

For SPLHSPSALPTQHASWGMLLPSRRLFRKLFWKLSSS, which enrichment score is on record?
The enrichment score was 3.16.

For ILAQEEEQYLQSGDQQLTRHVLLCLLLIIGLFANLS, which enrichment score is on record?
The enrichment score was 2.85.

How did the enrichment score turn out when MAILPLLLCLLPLAPASSPPQSATPSPCPRRCRCQT was run?
The enrichment score was 3.1.

How did the enrichment score turn out when MAAKVFESIGKFGLALAVAGGVVNSALYNVDAGHRA was run?
Its enrichment score is -0.66.

Which enrichment score does the source give for MRGHELPLVLLALVLCLTPRGRAVPLPAGGGTVLTK here?
The enrichment score was 1.85.

With WVSVLSDAWNSSPHPETRSMIVCLLFMMILLAKEVQ as the binder, how does the enrichment score read?
The enrichment score was 1.32.

Which enrichment score does the source give for IQDNRYILCKTACVAATFFIHFFYLSVFFWMLTLVL here?
Its enrichment score is 3.36.

How did the enrichment score turn out when PYLPLPEAAPAQAQADSLTVYLVVALASVSSLFLFS was run?
The enrichment score was 2.86.

For LLWLHTSFAFLYLLLTVYSMRRHTSKMRYKEDDLVK, which enrichment score is on record?
Its enrichment score is -0.904.

How did the enrichment score turn out when KVFSTCASHLTALSIFYGTIIFIYLQPNSSQSVDTD was run?
The enrichment score was 2.21.

For NIPAISELLHTPAHVLPSAAFLFSMFVNSLLLSKET, which enrichment score is on record?
The enrichment score was 3.36.

With QLLPLAVPIQRPQVPPEGSGPPGQKHQEVFLVNSLG as the binder, how does the enrichment score read?
The enrichment score was 0.472.

Which enrichment score does the source give for PATLNPIIYGMRTKQLRARIWSYLMHVLFDHSNLGS here?
Its enrichment score is -3.67.

MITGNMALIQVQATVVGFLASIAAVVFGWIPDGHFS was tested. Which enrichment score did it give?
Its enrichment score is 2.98.
